According to paper PMC11046803:
These are yes or no findings as the source states them, for the method shown. In cells and extracts the contact can be indirect. Some entries that bind do so weakly or less than the wild type.

Chains of the proteins cited; added tags and fusions are not shown.
UniProt O95817: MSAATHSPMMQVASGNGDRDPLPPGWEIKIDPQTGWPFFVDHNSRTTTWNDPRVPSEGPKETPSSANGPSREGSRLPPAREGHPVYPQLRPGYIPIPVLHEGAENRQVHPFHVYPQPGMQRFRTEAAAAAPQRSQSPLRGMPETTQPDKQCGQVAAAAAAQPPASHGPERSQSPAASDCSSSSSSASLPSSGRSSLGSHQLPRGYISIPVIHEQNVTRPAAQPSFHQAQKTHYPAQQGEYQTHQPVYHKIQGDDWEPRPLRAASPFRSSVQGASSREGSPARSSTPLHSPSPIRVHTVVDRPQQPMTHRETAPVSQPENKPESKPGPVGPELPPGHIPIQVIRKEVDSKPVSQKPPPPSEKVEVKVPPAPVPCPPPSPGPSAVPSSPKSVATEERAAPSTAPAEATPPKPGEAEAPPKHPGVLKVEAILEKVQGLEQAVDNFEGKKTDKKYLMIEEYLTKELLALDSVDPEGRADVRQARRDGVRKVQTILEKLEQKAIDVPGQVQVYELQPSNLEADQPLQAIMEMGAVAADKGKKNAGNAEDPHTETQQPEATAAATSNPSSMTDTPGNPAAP
UniProt P40763: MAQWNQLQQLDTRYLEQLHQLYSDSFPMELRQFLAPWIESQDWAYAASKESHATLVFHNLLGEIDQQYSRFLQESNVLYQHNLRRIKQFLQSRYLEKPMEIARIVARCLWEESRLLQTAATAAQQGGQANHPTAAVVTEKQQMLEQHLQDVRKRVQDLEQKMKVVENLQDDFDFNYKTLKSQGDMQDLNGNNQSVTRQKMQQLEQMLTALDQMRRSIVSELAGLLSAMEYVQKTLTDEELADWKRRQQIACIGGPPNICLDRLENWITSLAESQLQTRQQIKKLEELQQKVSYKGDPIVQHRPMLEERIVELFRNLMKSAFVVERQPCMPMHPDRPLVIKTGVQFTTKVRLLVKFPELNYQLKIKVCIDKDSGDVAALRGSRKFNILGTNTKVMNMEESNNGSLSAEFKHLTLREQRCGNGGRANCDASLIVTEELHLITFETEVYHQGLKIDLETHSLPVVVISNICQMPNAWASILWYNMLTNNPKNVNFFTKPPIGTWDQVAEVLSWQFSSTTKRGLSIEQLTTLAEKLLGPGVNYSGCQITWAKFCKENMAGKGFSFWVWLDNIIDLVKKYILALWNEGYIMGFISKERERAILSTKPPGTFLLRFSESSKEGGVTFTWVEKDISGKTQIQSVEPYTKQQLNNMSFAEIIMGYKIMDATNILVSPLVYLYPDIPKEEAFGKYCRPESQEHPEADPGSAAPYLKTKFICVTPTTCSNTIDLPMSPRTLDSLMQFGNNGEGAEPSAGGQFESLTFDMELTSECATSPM

Target: Bcl-2-associated athanogene 3 (BAG3) protein (human (endogenous in HASMC)) (UniProt O95817)
Assay: co-IP; HASMC lysates, endogenous proteins; untreated, after transfection of Flag-BAG3, after siBAG3, with or without AGEs; 2 mg total protein in 800 µl, 2 µl primary antibody 3 h, Protein A/G beads overnight at 4℃; Western blot

binding: binds
Substance: signal transducer and activator of transcription 3 (STAT3) (from UniProt P40763 1-770)
